Some of the results follow. Further columns of the screen follow, without active or inactive calls. Most of these compounds were active or inconclusive in the main read-out, so they are no random draw. Words in brackets tell the shape of the fitted curve; partial curves, single points and poor fits give uncertain potencies.
Test: qHTS Assay to Find Inhibitors of Chronic Active B-Cell Receptor Signaling
Settings: ABC-DLBCL IkBa-CBG/CBR reporter, luminescence ratio (green luciferase fused to IkBa over red control in TMD8 lymphoma cells), 4 h
How it was run: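 TMD8 human ABC-DLBCL cells with doxycycline-inducible IκBα–green luciferase fusion and unfused red luciferase, in 0.5% FBS medium; compounds up to 46 uM, 4 h at 37C. Green/red luminescence ratio, filter-overlap corrected, fitted to concentration-response curves.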

[1] = measured here: CBR red luminescence, cell number
[2] = measured here: IkBa-CBG green luminescence

SMILES | AC50 [1] | AC50 [2]
O=C(O)c1nn(Cc2nc3ccccc3o2)c(=O)c2ccccc12 | 1.58 µM [rising, partial curve, poor fit] | –
COCCNC(=S)N(CCc1c(C)[nH]c2ccc(C)cc12)Cc1ccco1 | 10 µM [falling, partial curve, poor fit] | –
O=C(NNC(=O)c1ccccc1O)c1cc2ccccc2o1 | 0.461 µM [falling, full curve] | –
CN1CCN(C(CNS(=O)(=O)c2ccc([N+](=O)[O-])cc2)c2ccc(F)cc2)CC1 (stereo not drawn) | 1.84 µM [falling, partial curve, poor fit] | –
COc1ccc(Cn2c(C)c(C)c(C#N)c2NC(=O)Nc2ccc(F)cc2)cc1 | 3.55 µM [falling, full curve, poor fit] | –
CCc1ccc(C2NC(c3ccc(CC)cc3)C([N+](=O)[O-])C(C)(C)C2[N+](=O)[O-])cc1 (stereo not drawn) | 7.31 µM [rising, partial curve, poor fit] | –
Cc1cccc(OCc2nc(C#N)c(N3CC(C)CC(C)C3)o2)c1 (stereo not drawn) | 13 µM [falling, partial curve, poor fit] | –
CC(=O)Nc1ccc(S(=O)(=O)NCCSCc2ccc(Cl)cc2Cl)cc1 | 14.1 µM [falling, single point] | –
CCOc1ccc(-c2nnn(CCC#N)n2)cc1OC | 15.8 µM [rising, partial curve] | –
COc1ccc(Cc2noc(CN3CCCC(OCc4ccccn4)C3)n2)cc1OC (stereo not drawn) | 7.08 µM [rising, full curve, poor fit] | –
Clc1ccc(-n2cc(COCc3ccccc3)nn2)cc1 | 7.94 µM [falling, partial curve] | –
CN(C)c1ccc(/C=C/c2cc[n+]([O-])cc2)cc1 | 8.91 µM [rising, partial curve, poor fit] | –
Cc1cccc(/C=N/NC(=O)c2cc(Br)ccc2O)n1 | 3.98 µM [falling, partial curve, poor fit] | 35.5 µM [falling, single point]
Cc1cccc(NC(=O)CNC(=O)Cc2ccc3c(c2)OCCO3)c1C | 0.82 µM [rising, full curve, poor fit] | –
COc1ccc2c(CC(=O)NCc3cccs3)coc2c1 | 22.4 µM [falling, single point] | –
Cc1nc(C)c(C(=O)N/N=C/c2ccco2)s1 | 14.1 µM [falling, partial curve] | –
CN1CCSc2ccc(C(=O)Nc3ccc(Cl)cc3)cc21 | 0.891 µM [falling, full curve] | –
COc1ccc(C=O)cc1COc1ccc([N+](=O)[O-])c(C)c1 | 7.94 µM [rising, partial curve] | –
Cc1onc(-c2ccccc2)c1C(=O)Nc1cc(C(F)(F)F)ccc1N1CCOCC1 | 10 µM [rising, partial curve] | 15.8 µM [falling, partial curve]
O=c1[nH]c2ccccc2c(=O)n1Cc1ccco1 | 22.4 µM [falling, single point] | –
Cc1ccc(OCC(=O)NNC(=O)c2ccc(NC(=O)C3CC3)cc2)c(C)c1 | 0.501 µM [falling, partial curve, poor fit] | –

SMILES | AC50 [1] | AC50 [2]
Cc1nc(SCC(=O)c2ccccc2)c([N+](=O)[O-])[nH]1 | 12.6 µM [falling, single point] | –
C=CCOC(=O)C1=C(C)Nc2[nH]c(=O)[nH]c(=O)c2C1c1cccc(OC)c1 (stereo not drawn) | 0.651 µM [rising, full curve, poor fit] | –
CNC(=O)c1[nH]cnc1C(=O)N[C@@H](Cc1ccccc1)C(=O)OCc1ccccc1 | 31.6 µM [rising, single point] | –
COc1ccccc1NS(=O)(=O)c1ccc(NC(=O)c2ccncc2)cc1 | 6.31 µM [rising, single point] | –
COc1ccccc1NC(=S)NNC(=O)c1cc(C)nn1C | 32.6 µM [falling, single point] | –
O=C(COc1ccc(Cl)cc1)Nc1nc(-c2cccs2)cs1 | 29.1 µM [falling, single point] | –
CCOC(=O)c1c(NC(N)=O)sc(C)c1C | 6.51 µM [falling, partial curve, poor fit] | –
O=C(Nc1nncs1)c1cccnc1Cl | 20.6 µM [rising, partial curve, poor fit] | –
Cc1nc(-c2ccc(Cl)cc2)sc1C1(C)CC(c2cccc([N+](=O)[O-])c2)=NO1 (stereo not drawn) | 15.8 µM [rising, partial curve] | –
O=C(Nc1ccccc1C(=O)O)c1ccccc1 | 2.31 µM [falling, full curve] | –
CCCCn1c(N)c(N(CC(C)C)C(=O)Cn2c(=O)cnc3ccccc32)c(=O)[nH]c1=O | 14.6 µM [rising, partial curve, poor fit] | –
C/C=C/C=C\C(=O)Nc1cccc(C2=NOC3(C2)C[C@@H](C(N)=O)N(C(=O)/C(C)=C/C)C3)c1 (stereo partly drawn) | 7.08 µM [falling, partial curve, poor fit] | –
CCn1ccnc1CN1CCc2c([nH]c3ccccc23)C1CC(C)C (stereo not drawn) | 35.5 µM [falling, single point] | –
COc1ccc(C2CC(=O)C(C=NCCO)=C(O)C2)cc1OC (stereo not drawn) | 0.103 µM [falling, full curve, poor fit] | –
COC(=O)Cc1c(C)nc2nc(-c3ccc(Cl)cc3)[nH]n2c1=O | 2.59 µM [falling, full curve] | –
Cc1nc(NC(=O)c2csc3ccccc23)sc1C | 10 µM [falling, partial curve, poor fit] | –
COc1ccc(-n2c(SCC(=O)Nc3cc(C)on3)nc3c([nH]c4ccccc43)c2=O)cc1 | 0.794 µM [rising, full curve, poor fit] | –
COc1cc(NC(=O)CN(c2ccc(C)cc2)S(=O)(=O)c2c(C)n[nH]c2C)cc(OC)c1 | 10 µM [falling, partial curve] | –
COC(=O)c1ccccc1NC(=O)C1CCCC1 | 15.8 µM [rising, single point] | –
COc1ccc(CCNC(=O)C2CCC(=O)N(CC3CCCCC3)C2)cc1 (stereo not drawn) | 7.94 µM [falling, partial curve, poor fit] | –

Two entries picked at random from those above:
SMILES | AC50 [1] | AC50 [2]
CCn1ccnc1CN1CCc2c([nH]c3ccccc23)C1CC(C)C (stereo not drawn) | 35.5 µM [falling, single point] | –
COC(=O)Cc1c(C)nc2nc(-c3ccc(Cl)cc3)[nH]n2c1=O | 2.59 µM [falling, full curve] | –
